From patent US6841720B1, “Inducible promoters” (Biogemma UK LTD, priority 1998, dated 2005)
For at least one compound, name, drawing or mass did not settle the structure.

Key:
[1] = system: AoPRT-L promoter-GUS fusion; assay: AoPRT-L promoter-GUS expression in transgenic tobacco (fluorimetric GUS assay); assay type: in vivo, Nicotiana tabacum (cv Samsun); conditions: comparative expression pattern, treatment with the compound
Protocol: The AoPRT-L promoter construct (p22-GUS(INT) Bin 19) was transformed into Nicotiana tabacum (cv Samsun) using standard Agrobacterium tumefaciens-mediated transformation techniques (Draper et al., (1988): Plant Genetic Transformation and Gene Expression—A Laboratory Manual. Blackwell Scientific Publications, Oxford, UK). The expression of the GUS gene driven by the AoPRT-L promoter was analysed using assays described previously (Draper et al., (1988) supra).
Plants were sprayed once, allowed to dry and then sprayed again on the same day (day 0). After 3 or 6 days leaf cores were taken and GUS activity was measured using a standard fluorimetric assay. […] Leaf cores from tobacco harbouring the AoPRT-L promoter fusion with GUS were floated for 3 or 6 days on water containing increasing concentrations of BTH after which time GUS activity in the leaf discs was measured fluorometrically.
Wounding of tobacco leaves (using the hammer method) or infection of tobacco with Pseudomonas syringae pathovar phaseolicola induces local accumulation of the wound-related phytohormone jasmonic acid (JA) (Kenton et al., submitted; Mur et al., (1997) Trends in Microbiol 5:297-300). […]

PR-1a promoter-GUS = conditions: comparative expression pattern, treatment with the compound; cited from earlier work
Osmotin = conditions: comparative expression pattern, treatment with the compound; cited from earlier work

O=C(O)c1cc(Cl)nc(Cl)c1 [INA, dichloroisonicotinic acid]
+: AoPRT-L expression on treatment (Table 2) [1] | PR-1a expression on treatment (Table 2) (PR-1a promoter-GUS) | Osmotin expression on treatment (Table 2) (Osmotin)
